Some of the results follow. Most entries show no effect beyond the scatter of the controls.
compound: Cc1nc(Nc2ncc(C(=O)Nc3c(C)cccc3Cl)s2)cc(N2CCN(CCO)CC2)n1 [dasatinib]; test: log2 fold change of tryptic peptide abundance, ligand vs vehicle (limited proteolysis) (log2 ratio); higher = more trypsin-susceptible (destabilized); settings: ligand concentration: 5 uM; sample: K562 cleared lysate

Chains of the proteins cited; added tags and fusions are not shown. Lines headed by an entry give the natural chain unless they say otherwise; changes in a name come on top.
UniProt Q9BYJ9: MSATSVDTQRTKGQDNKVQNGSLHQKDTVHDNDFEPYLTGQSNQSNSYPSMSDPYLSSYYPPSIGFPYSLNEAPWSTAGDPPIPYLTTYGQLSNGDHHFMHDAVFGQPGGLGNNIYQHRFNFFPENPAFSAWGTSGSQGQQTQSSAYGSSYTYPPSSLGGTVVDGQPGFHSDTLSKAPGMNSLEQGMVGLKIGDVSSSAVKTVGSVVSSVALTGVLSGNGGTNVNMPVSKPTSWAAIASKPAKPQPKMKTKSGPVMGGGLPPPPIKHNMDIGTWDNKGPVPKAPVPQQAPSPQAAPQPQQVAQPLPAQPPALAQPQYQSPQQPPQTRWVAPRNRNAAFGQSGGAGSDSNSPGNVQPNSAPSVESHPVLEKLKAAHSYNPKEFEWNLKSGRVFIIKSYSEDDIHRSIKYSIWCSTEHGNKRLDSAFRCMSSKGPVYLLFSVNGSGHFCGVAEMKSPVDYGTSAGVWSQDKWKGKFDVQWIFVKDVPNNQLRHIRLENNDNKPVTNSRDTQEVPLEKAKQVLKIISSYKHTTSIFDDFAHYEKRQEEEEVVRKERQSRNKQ
UniProt Q9BVP2: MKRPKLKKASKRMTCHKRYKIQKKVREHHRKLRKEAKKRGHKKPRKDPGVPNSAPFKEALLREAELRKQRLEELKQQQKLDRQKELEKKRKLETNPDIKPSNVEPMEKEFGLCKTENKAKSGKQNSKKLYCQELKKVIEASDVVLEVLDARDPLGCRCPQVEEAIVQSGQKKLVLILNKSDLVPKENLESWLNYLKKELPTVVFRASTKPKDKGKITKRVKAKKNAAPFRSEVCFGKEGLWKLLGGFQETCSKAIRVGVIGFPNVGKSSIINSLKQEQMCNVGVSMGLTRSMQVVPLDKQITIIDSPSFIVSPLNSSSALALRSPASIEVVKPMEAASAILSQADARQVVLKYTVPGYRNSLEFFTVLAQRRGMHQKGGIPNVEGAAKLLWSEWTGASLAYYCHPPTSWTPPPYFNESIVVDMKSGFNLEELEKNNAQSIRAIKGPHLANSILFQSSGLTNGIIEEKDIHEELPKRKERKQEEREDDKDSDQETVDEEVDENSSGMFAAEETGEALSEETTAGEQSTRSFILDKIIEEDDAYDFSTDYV
UniProt Q9BZV1: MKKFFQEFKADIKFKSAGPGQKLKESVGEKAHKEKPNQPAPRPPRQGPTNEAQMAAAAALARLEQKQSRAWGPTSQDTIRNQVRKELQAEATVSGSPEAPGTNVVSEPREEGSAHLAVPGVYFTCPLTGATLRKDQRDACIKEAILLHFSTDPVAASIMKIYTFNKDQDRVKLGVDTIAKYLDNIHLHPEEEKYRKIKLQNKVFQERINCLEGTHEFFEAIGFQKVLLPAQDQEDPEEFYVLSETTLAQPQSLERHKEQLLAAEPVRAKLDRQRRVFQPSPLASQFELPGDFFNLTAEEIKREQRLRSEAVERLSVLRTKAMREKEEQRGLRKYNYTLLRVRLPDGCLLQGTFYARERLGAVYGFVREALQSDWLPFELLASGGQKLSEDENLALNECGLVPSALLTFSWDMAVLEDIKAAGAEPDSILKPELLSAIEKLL
UniProt Q9BUQ8: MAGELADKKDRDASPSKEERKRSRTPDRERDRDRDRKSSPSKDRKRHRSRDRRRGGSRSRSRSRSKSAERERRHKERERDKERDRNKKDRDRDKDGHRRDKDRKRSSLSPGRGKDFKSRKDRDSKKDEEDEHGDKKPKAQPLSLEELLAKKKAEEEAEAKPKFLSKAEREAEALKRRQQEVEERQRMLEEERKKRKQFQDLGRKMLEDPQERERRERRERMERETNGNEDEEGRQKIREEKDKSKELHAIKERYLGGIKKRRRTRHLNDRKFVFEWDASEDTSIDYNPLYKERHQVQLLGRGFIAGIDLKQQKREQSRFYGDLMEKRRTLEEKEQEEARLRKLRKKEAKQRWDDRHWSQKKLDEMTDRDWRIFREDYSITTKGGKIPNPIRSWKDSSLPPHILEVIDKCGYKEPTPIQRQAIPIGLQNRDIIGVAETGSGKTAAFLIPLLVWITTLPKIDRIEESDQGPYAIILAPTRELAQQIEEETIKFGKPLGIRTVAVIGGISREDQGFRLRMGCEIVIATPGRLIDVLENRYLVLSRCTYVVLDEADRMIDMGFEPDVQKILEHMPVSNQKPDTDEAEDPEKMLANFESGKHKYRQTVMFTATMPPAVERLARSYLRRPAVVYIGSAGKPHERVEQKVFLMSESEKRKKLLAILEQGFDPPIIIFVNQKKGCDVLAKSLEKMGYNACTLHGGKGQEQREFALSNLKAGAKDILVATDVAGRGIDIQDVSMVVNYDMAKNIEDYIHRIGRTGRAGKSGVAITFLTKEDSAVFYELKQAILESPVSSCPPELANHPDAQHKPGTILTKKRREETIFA
UniProt Q9H0J9: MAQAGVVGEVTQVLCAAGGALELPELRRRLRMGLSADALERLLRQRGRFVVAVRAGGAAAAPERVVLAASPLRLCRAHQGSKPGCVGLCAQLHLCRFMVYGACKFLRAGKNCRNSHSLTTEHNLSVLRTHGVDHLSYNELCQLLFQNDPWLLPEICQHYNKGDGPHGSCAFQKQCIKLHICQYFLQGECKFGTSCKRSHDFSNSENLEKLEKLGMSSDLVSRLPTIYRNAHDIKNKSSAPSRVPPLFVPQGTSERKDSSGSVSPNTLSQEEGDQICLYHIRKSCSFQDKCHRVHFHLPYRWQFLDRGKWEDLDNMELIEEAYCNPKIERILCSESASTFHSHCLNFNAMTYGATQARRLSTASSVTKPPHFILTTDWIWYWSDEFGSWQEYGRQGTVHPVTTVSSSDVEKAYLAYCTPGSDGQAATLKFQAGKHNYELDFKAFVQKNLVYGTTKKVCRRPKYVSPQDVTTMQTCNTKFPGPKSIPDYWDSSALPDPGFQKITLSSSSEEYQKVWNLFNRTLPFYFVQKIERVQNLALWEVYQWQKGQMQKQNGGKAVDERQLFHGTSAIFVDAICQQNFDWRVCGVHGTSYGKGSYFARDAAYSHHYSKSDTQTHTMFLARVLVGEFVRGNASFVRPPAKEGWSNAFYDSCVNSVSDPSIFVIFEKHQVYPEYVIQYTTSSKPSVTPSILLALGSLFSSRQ
UniProt Q9BV97: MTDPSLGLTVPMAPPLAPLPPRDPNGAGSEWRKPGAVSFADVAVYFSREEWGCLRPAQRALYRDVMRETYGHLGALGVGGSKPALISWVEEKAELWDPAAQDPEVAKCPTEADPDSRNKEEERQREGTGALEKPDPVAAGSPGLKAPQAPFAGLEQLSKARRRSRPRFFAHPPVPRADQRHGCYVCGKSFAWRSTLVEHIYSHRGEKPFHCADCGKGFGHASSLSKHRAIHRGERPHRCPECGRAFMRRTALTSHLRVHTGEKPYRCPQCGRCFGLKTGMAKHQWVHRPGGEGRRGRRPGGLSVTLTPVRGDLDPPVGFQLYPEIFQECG
UniProt Q9GZP4: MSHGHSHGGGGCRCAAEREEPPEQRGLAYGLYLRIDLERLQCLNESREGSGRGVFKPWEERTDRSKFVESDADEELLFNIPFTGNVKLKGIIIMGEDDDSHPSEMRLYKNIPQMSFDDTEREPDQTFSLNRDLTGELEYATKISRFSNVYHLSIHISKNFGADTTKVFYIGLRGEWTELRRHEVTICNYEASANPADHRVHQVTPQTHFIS
UniProt Q9BXC9: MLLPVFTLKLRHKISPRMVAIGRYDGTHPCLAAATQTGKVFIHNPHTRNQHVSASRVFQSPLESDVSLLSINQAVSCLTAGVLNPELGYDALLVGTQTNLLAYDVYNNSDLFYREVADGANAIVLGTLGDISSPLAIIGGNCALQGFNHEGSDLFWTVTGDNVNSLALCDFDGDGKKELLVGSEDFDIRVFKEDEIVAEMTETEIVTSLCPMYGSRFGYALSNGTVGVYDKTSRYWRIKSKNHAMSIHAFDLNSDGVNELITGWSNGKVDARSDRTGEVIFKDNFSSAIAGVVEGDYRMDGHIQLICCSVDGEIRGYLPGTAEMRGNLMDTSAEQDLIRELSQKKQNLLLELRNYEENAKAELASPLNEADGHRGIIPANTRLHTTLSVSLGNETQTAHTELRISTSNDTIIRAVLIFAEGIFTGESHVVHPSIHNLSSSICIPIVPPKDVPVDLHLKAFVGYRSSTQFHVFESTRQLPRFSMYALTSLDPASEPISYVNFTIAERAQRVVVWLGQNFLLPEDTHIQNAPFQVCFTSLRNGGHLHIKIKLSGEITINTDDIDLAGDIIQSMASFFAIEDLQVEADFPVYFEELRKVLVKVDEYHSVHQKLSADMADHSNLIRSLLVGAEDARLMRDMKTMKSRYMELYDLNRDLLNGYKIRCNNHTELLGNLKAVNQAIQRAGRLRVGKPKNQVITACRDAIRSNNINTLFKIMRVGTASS

| Target | log2 fold change |
| --- | --- |
| YTHDF1 (peptide sequence: PTSWAAIASKPAKPQPK, peptide start residue: 231) (UniProt Q9BYJ9) | -0.329 |
| GNL3 (peptide sequence: KLETNPDIKPSNVEPMEK, peptide start residue: 91) (UniProt Q9BVP2) | 0.304 |
| UBXN6 (peptide sequence: EAILLHFSTDPVAASIMK, peptide start residue: 143) (UniProt Q9BZV1) | 0.196 |
| WDR12 (peptide sequence: VFNCISYSPLCKR, peptide start residue: 299) (UniProt Q9GZL7) | 0.437 |
| DDX23 (peptide sequence: HQVQLLGR, peptide start residue: 294) (UniProt Q9BUQ8) | 0.104 |
| PARP12 (peptide sequence: LCRAHQGSK, peptide start residue: 74) (UniProt Q9H0J9) | 0.19 |
| B7Z5R0 (peptide sequence: EGTGALEKPDPVAAGSPGLK, peptide start residue: 116) (UniProt Q9BV97) | 0.0844 |
| UniProt Q9GZP4 (peptide sequence: HEVTICNYEASANPADHR, peptide start residue: 182) | 0.165 |
| UniProt Q9BXC9 (peptide sequence: AELASPLNEADGHR, peptide start residue: 361) | 0.629 |

Source: the supplement of paper PMC12819154, “High-throughput peptide-centric local stability assay extends protein–ligand identification to membrane proteins, tissues and bacteria” (Nature Structural & Molecular Biology, 2025)
